The values that follow come from PMC8229129, “Local Colonic Administration of a Serine Protease Inhibitor Improves Post-Inflammatory Visceral Hypersensitivity in Rats” (Pharmaceutics, 2021).

The structures appear in SMILES notation.

The data set relates to colonic compliance. Kind of data set: Colonic compliance (pressure-volume curves). The class given is in vivo, Sprague–Dawley rats. As to conditions: rats; for Effect on colonic compliance (intracolonic pressure at graded volumes of water): compared to vehicle, compliance increased.

On to `CC(=O)Nc1ccc(OP(=O)(Oc2ccc(NC(C)=O)cc2)C(Cc2ccc(N=C(N)N)cc2)NC(=O)OCc2ccccc2)cc1.Cl` (stereo not drawn) [UAMC-00050], for which the “Effect on colonic compliance” value (0.1 mg/kg–1.0 mg/kg intracolonic) was “did not alter colonic compliance”. The “Effect on colonic compliance (intracolonic pressure at graded volumes of water)” value is, setting by setting: (2.5 mg/kg intracolonic) “lower intracolonic pressures”; (5.0 mg/kg intracolonic) “lower intracolonic pressures”.
